# In PubChem BioAssay AID1671190 (National Center for Advancing Translational Sciences (NCATS), 2021):
# Amino acid sequences for entries named in this document (tags omitted). A change or cut given only in a name is not applied to a line headed by its entry.
# UniProt P18054: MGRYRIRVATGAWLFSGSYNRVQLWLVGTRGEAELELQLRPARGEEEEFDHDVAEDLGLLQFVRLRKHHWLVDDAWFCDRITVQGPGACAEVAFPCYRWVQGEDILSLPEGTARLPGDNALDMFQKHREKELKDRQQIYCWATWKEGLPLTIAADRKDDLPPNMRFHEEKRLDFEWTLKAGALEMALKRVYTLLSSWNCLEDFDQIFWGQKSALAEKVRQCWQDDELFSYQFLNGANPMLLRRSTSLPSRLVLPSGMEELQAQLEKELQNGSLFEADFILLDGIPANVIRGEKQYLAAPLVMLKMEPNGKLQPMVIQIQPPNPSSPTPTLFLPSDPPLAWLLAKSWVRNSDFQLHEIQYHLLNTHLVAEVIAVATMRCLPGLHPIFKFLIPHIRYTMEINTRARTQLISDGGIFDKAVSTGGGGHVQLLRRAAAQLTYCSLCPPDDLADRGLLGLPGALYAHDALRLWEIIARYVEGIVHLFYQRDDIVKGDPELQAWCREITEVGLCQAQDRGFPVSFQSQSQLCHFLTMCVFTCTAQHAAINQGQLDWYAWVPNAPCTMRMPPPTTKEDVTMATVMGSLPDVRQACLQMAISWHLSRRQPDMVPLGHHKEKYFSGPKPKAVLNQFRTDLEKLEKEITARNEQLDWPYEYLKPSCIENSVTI
# The campaign covered roughly 580,000 compounds. About 6,100 (1.1%) were called active. Inconclusive results, whose numbers are uncertain, are shown with a selection of clear calls. Calls follow the shape of the dose curve; as a rule, active = well fitted inhibition curve with a large enough effect; inconclusive = small, poorly fitted or top-dose-only effect, or another doubt; inactive = no such curve, though single readings can be large or run the other way. Where the call is inconclusive, the potency comes from a doubtful curve fit.
# Biological target: Polyunsaturated fatty acid lipoxygenase ALOX12 (Homo sapiens) (UniProt P18054)
# Experiment: Primary qHTS assay for inhibitors of human arachidonate 12S-lipoxygenase (ALOX12): Round 2
# Settings: purified 12hLO, xylenol orange hydroperoxide absorbance; activity change, negative = inhibition: at 108 µM (top of the series) unless noted
# In short: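 Purified human 12hLO at 150 nM in 25 mM Hepes, 0.01% Triton X-100, pH 7.0, preincubated 15 min at room temperature with compound. Reaction started with 40 uM arachidonic acid, 30 min at room temperature. Hydroperoxide measured by Fe-xylenol orange, 573/405 nm absorbance ratio.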
# % is scaled to controls: 0 for no effect and ±100 for the full control effect; potency is read from the fitted curve at half-maximal effect.
SMILES,Potency,"activity change, negative = inhibition"
CN(Cc1cc(-c2ccccc2)on1)C(=O)CN1C[C@@H]2CC[C@H](CC1=O)N2,"inconclusive: 1.78 µM [inhibitor, full curve, poor fit]",–
O=S(=O)(Cc1ccccc1)N1CCN(Cc2c(F)cccc2Cl)CC1,"inconclusive: 5.62 µM [inhibitor, full curve, poor fit]",–
COc1cccc(OC)c1C(=O)N1CC(C)OC(C)C1 (stereo not given),"inconclusive: 50.1 µM [inhibitor, partial curve, poor fit]",–
COc1ccc(/C=C/C(=O)C2CC2)cc1COc1cccc(C)c1C,"inconclusive: 112 µM [inhibitor, single point]",–
O=C(O)CNc1ccc(S(=O)(=O)C(F)(F)F)cc1[N+](=O)[O-],active: 3.98 µM,–
O=C(O)CN1C(=O)/C(=C\c2ccc(OC(=O)c3ccco3)cc2)SC1=S,"inconclusive: 89.1 µM [inhibitor, partial curve, poor fit]",–
CCc1ccc(C2CC(c3ccccc3)=NN2c2nc(C)cs2)cc1 (stereo not given),"inconclusive: 39.8 µM [inhibitor, partial curve, poor fit]",–
CCOC(=O)c1c(C)oc2c1c(C(c1ccncc1)N1CCOCC1)c(O)c1ccccc12 (stereo not given),"inconclusive: 2.82 µM [inhibitor, partial curve, poor fit]",–
O=C(c1ccc2c(c1)CCN2S(=O)(=O)c1ccc(Cl)cc1)N1CCN(c2ccccc2)CC1,inactive,–
CCOc1nc2ccccc2nc1N1CCC(C(=O)Nc2ccc(C)c(Cl)c2)CC1,"inconclusive: 100 µM [inhibitor, partial curve, poor fit]",–
CC1CCCC(NC(=O)Nc2cccs2)C1C (stereo not given),"inconclusive: 56.2 µM [inhibitor, partial curve, poor fit]",–
CC(NCc1cccs1)C1CC1 (stereo not given),"inconclusive: 0.447 µM [inhibitor, full curve, poor fit]",–
COc1cc2c(=O)n(CCCN3CCOCC3)c(=S)[nH]c2c(OC)c1OC,"inconclusive: 39.8 µM [inhibitor, partial curve, poor fit]",–
CCS(=O)(=O)c1ccc(OC)c(N=Nc2ccc(O)c3ncccc23)c1,"inconclusive: 31.6 µM [inhibitor, partial curve, poor fit]",–
Cc1ccc(Nc2cc(C)nc3c(C)cc(C)c([N+](=O)[O-])c23)cc1,"inconclusive: 35.5 µM [inhibitor, partial curve, poor fit]",–
c1ccc(CN2CCC3(CC2)Nc2ccccc2S3)cc1,"inconclusive: 44.7 µM [inhibitor, partial curve, poor fit]",–
CC(=O)Nc1ccc(S(=O)(=O)NCc2cccn2Cc2cccc(C)c2)cc1,"inconclusive: 63.1 µM [inhibitor, partial curve, poor fit]",–
Cc1c(C(=O)Nc2ccc(Cl)cc2)c2ccccn2c1CCc1ccncc1,"inconclusive: 50.1 µM [inhibitor, partial curve, poor fit]",–
COc1ccc(CCc2nc3nccc(-c4ccco4)n3n2)cc1,"inconclusive: 3.55 µM [inhibitor, full curve, poor fit]",–
O=S(=O)(Nn1cnnc1)c1ccccc1Cl,"inconclusive: 44.7 µM [inhibitor, partial curve, poor fit]",–

SMILES,Potency,"activity change, negative = inhibition"
Cc1nc(-c2cccc(Cl)c2)n(Cc2ccc(F)c(F)c2)c(=O)c1CCO,"inconclusive: 31.6 µM [inhibitor, partial curve, poor fit]",–
COC(=O)c1cc(C)sc1NC(=O)CSc1ncccn1,"inconclusive: 44.7 µM [inhibitor, partial curve, poor fit]",–
Cc1ccc(CN2CCC(C(=O)NCCC(C)C)CC2)o1,"inconclusive: 0.282 µM [inhibitor, full curve, poor fit]",–
O=C(O)CCC(NS(=O)(=O)c1ccc(Cl)cc1)C(=O)O (stereo not given),"inconclusive: 28.2 µM [inhibitor, partial curve, poor fit]",–
CCNC(=O)CCSc1nc(C)cc(C)n1,"inconclusive: 100 µM [inhibitor, single point]",–
Cc1ccccc1CNC(=O)Nc1cccs1,"inconclusive: 39.8 µM [inhibitor, partial curve, poor fit]",–
CCCOc1ccc(N2C(=O)CC(SC(=NC)Nc3ccc(F)cc3)C2=O)cc1 (stereo not given),inactive,–
CCOC(=O)CC1CCCCN1C(=O)CCC1(Cc2ccc3ccccc3c2)CCC(=O)N1 (stereo not given),"inconclusive: 100 µM [inhibitor, partial curve, poor fit]",–
COC(=O)c1c(-c2ccc(OC)c(OC)c2)csc1N,–,inconclusive: -36.9% [inhibitor]
C=CCC1(CO)CCCN(CCS(=O)(=O)c2ccccc2)C1 (stereo not given),inactive,–
Cc1cc(S(=O)(=O)NC(=O)[C@H]2O[C@@H](n3ccc(=O)[nH]c3=O)[C@H](O)[C@@H]2O)ccc1Br,"inconclusive: 56.2 µM [inhibitor, partial curve, poor fit]",–
C/C(=N\NC(=O)c1ccc(C)c(C)c1)c1ccc(C)cc1C,inactive,–
COC(=O)[C@H](NC(=O)[C@@H]1[C@@H](NC(=O)Nc2ccc(F)cc2F)CCN1C(=O)c1cccn1C)C(C)C,"inconclusive: 50.1 µM [inhibitor, partial curve, poor fit]",–
COc1ccccc1/C=C/C(=O)OCCN1CCOCC1,inactive,–
CC(=O)c1ccc(-c2ccc(C(=O)N3CCCc4ccccc43)o2)cc1,inactive,–
Oc1ccc(Br)cc1CN1CCCCCCC1,"inconclusive: 1.41 µM [inhibitor, full curve]",–
CC(=O)c1c(C)[nH]c(C(=O)C(C)OC(=O)c2ccc(C)c(O)c2)c1C (stereo not given),"inconclusive: 89.1 µM [inhibitor, single point]",–
Cc1nc(=O)c(-c2ccccc2)c(C)n1CC1CCCO1 (stereo not given),"inconclusive: 112 µM [inhibitor, single point]",–
C=CCn1c(NCc2ccco2)nc2ccccc21,"inconclusive: 35.5 µM [inhibitor, single point]",–
COc1ccccc1-c1coc2cc(OC(=O)N3CCOCC3)ccc2c1=O,"inconclusive: 0.501 µM [inhibitor, full curve, poor fit]",–

# Part of the list above in a different format:
SMILES | Potency | activity change, negative = inhibition
CN(Cc1cc(-c2ccccc2)on1)C(=O)CN1C[C@@H]2CC[C@H](CC1=O)N2 | inconclusive: 1.78 µM [inhibitor, full curve, poor fit] | –
O=S(=O)(Cc1ccccc1)N1CCN(Cc2c(F)cccc2Cl)CC1 | inconclusive: 5.62 µM [inhibitor, full curve, poor fit] | –
COc1cccc(OC)c1C(=O)N1CC(C)OC(C)C1 (stereo not given) | inconclusive: 50.1 µM [inhibitor, partial curve, poor fit] | –
